Laboratory results published in US20220372138A1.
No constants are given. Whether binding was seen depends on the method and setting. Some binding calls cover weakened binding; strength is not graded here.

Assays:
[1] = molecular target: human IGSF11 (VSIG3) expressed on cells (human) (UniProt Q5DX21); assay: FACS COLO-741
[2] = molecular target: human IGSF11 (VSIG3) expressed on cells (human) (UniProt Q5DX21); assay: flow cytometry on MDA-MB-231-luc/IGSF11 cells, anti-human IgG Fc-AF647
[3] = molecular target: human IGSF11 (VSIG3) expressed on cells (human) (UniProt Q5DX21); assay: FACS staining of COLO-741 cells (endogenous IGSF11)
[4] = molecular target: human IGSF11 (VSIG3) expressed on cells (human) (UniProt Q5DX21); assay: FACS, MDA-MB-231-luc transduced with IGSF11
[5] = molecular target: human IGSF11 (VSIG3) expressed on cells (human) (UniProt Q5DX21); assay: FACS, MDA-MB-231-luc/IGSF11, soluble IGSF11-His as competitor
[6] = molecular target: human IGSF11 (VSIG3) expressed on cells (human) (UniProt Q5DX21); assay: flow cytometry on MDA-MB-231-luc cells transduced with IGSF11 (A) or mock transduced (B), A-006 then anti-human IgG-AF647
[7] = molecular target: human IGSF11 (VSIG3) expressed on cells (human) (UniProt Q5DX21); assay: FACS dot plots, IgG1-format antibody, cells treated with IGSF11 siRNA (KD) or scrambled control (SC)
[8] = molecular target: human IGSF11 (VSIG3) expressed on cells (human) (UniProt Q5DX21); assay: FACS MFI<100
[9] = molecular target: human IGSF11 (VSIG3) expressed on cells (human) (UniProt Q5DX21); assay: FACS <25% cells
Streptavidin = Streptavidin (UniProt P22629); assay: scFv ELISA
IGSF11-hFc (human) = molecular target: T1, IGSF11-hFc (human) (UniProt Q5DX21); assay: IgG1 ELISA EC50 >10 nM
T1 sequence: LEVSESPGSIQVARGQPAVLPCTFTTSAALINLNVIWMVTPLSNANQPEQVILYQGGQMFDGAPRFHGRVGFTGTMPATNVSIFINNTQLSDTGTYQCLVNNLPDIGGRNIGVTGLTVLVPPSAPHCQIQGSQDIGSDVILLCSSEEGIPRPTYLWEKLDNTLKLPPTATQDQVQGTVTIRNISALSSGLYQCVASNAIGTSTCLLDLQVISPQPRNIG

[10] = molecular target: human IGSF11 (VSIG3) expressed on cells (human) (UniProt Q5DX21); assay: FACS MFI>150
[11] = molecular target: human IGSF11 (VSIG3) expressed on cells (human) (UniProt Q5DX21); assay: FACS >50% cells
[12] = molecular target: human IGSF11 (VSIG3) expressed on cells (human) (UniProt Q5DX21); assay: FACS 35-50% cells
[13] = molecular target: human IGSF11 (VSIG3) expressed on cells (human) (UniProt Q5DX21); assay: FACS MFI 100-150

B1: A-006 (IgG1 format) (antibody, V domains shown)
VH: EVQLVESGGGLIQPGGSLRLSCAASGFTVSSNYMSWVRQAPGKGLEWVSVIYSGGSTYYADSVKGRFTISRDNSKNTLYLQMNSLRAEDTAVYYCARGNPYYYGDLQVNFDYWGQGTLVTVSS
VL: QAVVTQEPSLTVSPGGTVTLTCASSTGAVTSGYYPNWFQQKPGQAPRPLIYSTSNKHSWTPARFSGSLLGGKAALTLSGVQPDDEAEYYCLLYYGGDWVFGGGTKLTVL
- binding [1]: binds
- binding [2]: binds
- binding [3]: binds
- binding [4]: binds
- binding [5]: binds
- binding [6]: binds

B2: A-024 (IgG1 format) (antibody, V domains shown)
VH: QMQLVQSGAEVKKPGSSVKVSCKASGGTFSSYAISWVRQAPGQGLEWMGWISAYNGNTNYAQKLQGRVTMTTDTSTSTAYMELRSLRSDDTAVYYCASLGSYGYTGAFDIWGQGTMATVSS
VL: QSALTQPASVSGSPGQSITISCTGTSSDVGGYNYVSWYQQHPGKAPKLMIYEVSNRPSGVSNRFSGSKSGNTASLTISGLQAEDEADYYCSSYTSSSTLVVFGGGTKLTVL
- binding [1]: binds
- binding [3]: binds

B3: A-004 (IgG1 format) (antibody, V domains shown)
VH: EVQLVESGGGLVKPGGSLRLSCAASGFTFSSYSMNWVRQAPGKGLEWVSSISSSSSYIYYADSVKGRFTISRDNAKNSLYLQMNSLRAEDTAVYYCARGQLLWFGESALIDAFDIWGQGTMVTVSS
VL: EIVLTQSPSSLSASVGDRVTITCRASQSISSYLNWYQLKPGKAPKLLIYAASILQSGVPSRFSGSGSGTDFTLTISSLQPEDFAAYYCQQSYSTPRTFGQGTKLEIK
- binding [7]: binds

B4: A-035 (scFv format) (scFv, V domains shown)
VH: QVQLVQSGAEVKKPGASVKVSCKASGYTFTGYYMHWVRQAPGQGLEWMGWINPNSGNTGYAQKFQGRVTMTRNTSISTAYMELSSLRSEDTAVYYCARGRLERGYWYFDLWGRGTLVTVSS
VL: NFMLTQPHSVSESPGRTVTISCTRSSGSITSNYVQWYQQRPGSAPTILIYEDKERPSEVPDRFSGSIDISSNSASLTISGLKTEDEADYYCQSYGGTSQGVLFGGGTKVTVL
- binding [8]: binds
- binding [9]: binds
- binding (Streptavidin): no binding (tested: <0.025 or <0.05 RFU)

B5: A-035 (IgG1 format) (antibody, V domains shown)
VH: QVQLVQSGAEVKKPGASVKVSCKASGYTFTGYYMHWVRQAPGQGLEWMGWINPNSGNTGYAQKFQGRVTMTRNTSISTAYMELSSLRSEDTAVYYCARGRLERGYWYFDLWGRGTLVTVSS
VL: NFMLTQPHSVSESPGRTVTISCTRSSGSITSNYVQWYQQRPGSAPTILIYEDKERPSEVPDRFSGSIDISSNSASLTISGLKTEDEADYYCQSYGGTSQGVLFGGGTKVTVL
- binding (IGSF11-hFc (human)): binds

B6: A-021 (scFv format) (scFv, V domains shown)
VH: QVQLVQSGAEVKKPGASVKVSCKASGYTFTSYGISWVRQAPGQGLEWMGWISAYNGNTNYAQKLQGRVTMTTDTSTSTAYMELRSLRSDDTAVYYCARVPAWSGQFDYWGQGTLVTVSS
VL: QSALTQPASVSGSPGQSITISCTGTSSDVGGYNYVSWYQQHPGKAPKLMIYEVTNRPSGVSDRFSGSKSANTASLTISELQAEDEAVYYCNSYTSGPTYVLFGGGTQLTVL
- binding [10]: binds
- binding [11]: binds
- binding (Streptavidin): no binding (tested: <0.025 or <0.05 RFU)

B7: A-022 (scFv format) (scFv, V domains shown)
VH: EVQLLESGPGLVKPSQTLSLTCTVSGGSISSGGYYWSWIRQHPGKGLEWIGYIYYSGSTYYNPSLKSRVTISVDTSKNQFSLKLSSVTAADTAVYYCARASRSTDYYFDYWGQGTLVTVSS
VL: QPGLTQPPSMSYGLGQTATLTCTGNRNNIGDQGAAWLQQHQGHPPKLLSYRNNNGPSGISERLSASRSGNTASLTISGLQPEDEADYYCSAWDSSLRAWVFGGGTKLTVL
- binding [12]: binds
- binding (Streptavidin): no binding (tested: <0.025 or <0.05 RFU)
- binding [13]: binds

B8: A-024 (scFv format) (scFv, V domains shown)
VH: QMQLVQSGAEVKKPGSSVKVSCKASGGTFSSYAISWVRQAPGQGLEWMGWISAYNGNTNYAQKLQGRVTMTTDTSTSTAYMELRSLRSDDTAVYYCASLGSYGYTGAFDIWGQGTMATVSS
VL: QSALTQPASVSGSPGQSITISCTGTSSDVGGYNYVSWYQQHPGKAPKLMIYEVSNRPSGVSNRFSGSKSGNTASLTISGLQAEDEADYYCSSYTSSSTLVVFGGGTKLTVL
- binding [10]: binds
- binding [11]: binds
- binding (Streptavidin): no binding (tested: <0.025 or <0.05 RFU)
